Results: patent US20150111933A1, “Deuterated Thiazolidinone Analogues as Agonists for Follicle Stimulating Hormone Receptor” (Merck Patent GmbH, priority 2012, published 2015)
Some results were stated once for a whole list of compounds, not compound by compound.

Experiments:
[1] = Intrinsic clearance (Clint) in rat liver microsomes; type: in vitro ADME; conditions: in words, versus reference compound
Description: (§1) Intrinsic Clearance (Clint) Assay Protocol:
(§2) A Tecan Genesis workstation (RSP 150/8) was used for to perform the microsomal incubations. Analysis was carried out using a Waters ACQUITY UPLC system coupled to an ABSciex API3000 mass spectrometer. Data analysis was performed using Assay Explorer (Symyx).
(§3) 0.1 M potassium phosphate buffer pH 7.4 containing 1 mM MgCl2 15 mM NADPH in phosphate buffer 4.4 mg protein/mL liver microsomes in phosphate buffer acetonitrile 20% DMSO in water
(§4) Each experiment consists of 12 test and 2 reference compounds. The reference compounds are incubated as a cocktail. Dilution of test compounds was done in 2 steps from a 10 mM DMSO stock solution. First 4 μL stock solution was added to 196 μL of 20% DMSO in potassium phosphate buffer pH 7.4. In a second step 10 μL of the first dilution were added to […] potassium phosphate buffer and 100 μL internal standard solution to a final concentration of 0.8 μM. 100 μL of the final compound dilution were aliquoted into a 96 deep well plate. 12.5 μL liver microsomes were added to each well (0.5 mg/mL final protein concentration) and the samples preincubated for 5 min at 37° C. and 800 rpm agitation.
(§5) After the preincubation, 250 μL cold acetonitrile were added to the 0 min samples to prevent a reaction. Following this, 12.5 μL NADPH solution were added to all wells to start the incubation, with the exception of the 0 min and 30 min controls without cofactor, where the NADPH was substituted for phosphate buffer.
(§6) The incubations were stopped after 5, 10, 20 and 30 min by adding 250 μL cold acetonitrile to the individual wells.
(§7) The quenched samples were then centrifuged at 4000 g for 1 h at 4° C. 100 μL of the supernatant were transferred into 96 well plates for analysis.
(§8) The metabolic stability of each compound was determined by measurement of the change in LC-MS/MS peak area over time. Assay Explorer software was used to automatically calculate the slope k of the decline. The intrinsic clearance (Clint) of each compound was then calculated according to the formula:
(§9) Clint (μL/min/mg protein)=k1000/protein concentration.

[2] = Intrinsic clearance (Clint) in human liver microsomes; type: in vitro ADME; conditions: in words, versus reference compound
Description: as §1, §2, §3, §4, §5, §6, §7, §8, §9

| Compound | Clint in rat hepatic microsome compared to reference compound [1] | Clint in human hepatic microsome compared to reference compound [2] |
| --- | --- | --- |
| [2H]c1c([2H])c([2H])c(C#Cc2ccc([C@@H]3S[C@H](CC(=O)NC([2H])([2H])C([2H])([2H])c4ccc(OC([2H])([2H])[2H])c(OC)c4)C(=O)N3c3cccc(C(N)=O)c3)cc2)c([2H])c1[2H] [Compound 13, 3-((2S,5R)-4-oxo-5-(2-oxo-2-((1,1,2,2-d4-2-(3-ethoxy-4-methox-d3-yphenyl)ethyl)amino)ethyl)-2-(4-((phenyl-d5)ethynyl)phenyl)thiazolidin-3-yl)benzamide] | decreased | – |
| [2H]c1c([2H])c([2H])c(C#Cc2c([2H])c([2H])c([C@H]3N(c4cccc(C(N)=O)c4)C(=O)[C@@H](CC(=O)NC([2H])([2H])C([2H])([2H])c4ccc(OC([2H])([2H])[2H])c(OCC)c4)[S@@+]3[O-])c([2H])c2[2H])c([2H])c1[2H] (single isomer, unassigned) [Compound 20] | decreased | – |
| [2H]C([2H])([2H])Oc1ccc(C([2H])([2H])C([2H])([2H])NC(=O)C[C@H]2S[C@@H](c3ccc(C#Cc4ccccc4)cc3)N(c3cccc(C(N)=O)c3)C2=O)cc1OC [Compound 3, 3-((2S,5R)-4-oxo-5-(2-oxo-2-((1,1,2,2-d4-2-(3-methoxy-4-(methoxy-d3)phenyl)ethyl)amino)ethyl)-2-(4-(phenylethynyl)phenyl)thiazolidin-3-yl)benzamide] | decreased | decreased |
| [2H]C([2H])([2H])Oc1ccc(CCNC(=O)C[C@H]2S[C@@H](c3ccc(C#Cc4ccccc4)cc3)N(c3cccc(C(N)=O)c3)C2=O)cc1OCC (single isomer, unassigned) [Compound 6] | decreased | – |
| [2H]c1c([2H])c([2H])c(C#Cc2ccc([C@@H]3S[C@H](CC(=O)NC([2H])([2H])C([2H])([2H])c4ccc(O)c(OC)c4)C(=O)N3c3cccc(C(N)=O)c3)cc2)c([2H])c1[2H] (single isomer, unassigned) [Compound 11] | decreased | – |
| 3-((2S,5R)-5-(2-((3-ethoxy-4-methoxyphenethyl)amino)-2-oxoethyl)-4-oxo-2-(4-((phenyl-d5)ethynyl)phenyl)thiazolidin-3-yl)benzamide [Compound 8] | decreased | – |
| [2H]C([2H])(NC(=O)C[C@H]1S[C@@H](c2ccc(C#Cc3ccccc3)cc2)N(c2cccc(C(N)=O)c2)C1=O)C([2H])([2H])c1ccc(OC)c(OCC)c1 (single isomer, unassigned) [Compound 4] | decreased | decreased |
| [2H]c1c([2H])c([2H])c(C#Cc2ccc([C@@H]3S[C@H](CC(=O)NC([2H])([2H])C([2H])([2H])c4ccc(OC([2H])([2H])[2H])c(OCC)c4)C(=O)N3c3cccc(C(N)=O)c3)cc2)c([2H])c1[2H] (single isomer, unassigned) [Compound 10] | decreased | decreased |
| [2H]c1c([2H])c([C@@H]2S[C@H](CC(=O)NC([2H])([2H])C([2H])([2H])c3ccc(OC([2H])([2H])[2H])c(OCC)c3)C(=O)N2c2cccc(C(N)=O)c2)c([2H])c([2H])c1C#Cc1ccccc1 (single isomer, unassigned) [Compound 16] | decreased | – |
| [2H]C([2H])([2H])Oc1ccc(C([2H])([2H])C([2H])([2H])NC(=O)C[C@H]2S[C@@H](c3ccc(C#Cc4ccccc4)cc3)N(c3cccc(C(N)=O)c3)C2=O)cc1OCC (single isomer, unassigned) [Compound 5] | decreased | – |
| [2H]C([2H])(NC(=O)C[C@H]1S[C@@H](c2ccc(C#Cc3ccccc3)cc2)N(c2cccc(C(N)=O)c2)C1=O)C([2H])([2H])c1ccc(OC)c(OCC)c1 (single isomer, unassigned) [Compound 14] | decreased | – |
| [2H]c1c([2H])c([C@@H]2S[C@H](CC(=O)NC([2H])([2H])C([2H])([2H])c3ccc(OC([2H])([2H])[2H])c(OC([2H])([2H])[2H])c3)C(=O)N2c2cccc(C(N)=O)c2)c([2H])c([2H])c1C#Cc1ccccc1 [Compound 17, 3-((2S,5R)-4-oxo-5-(2-oxo-2-((1,1,2,2-d4-2-(3,4-dimethoxy-d6-phenyl)ethyl)amino)ethyl)-2-(2,3,5,6-d4-4-(phenylethynyl)phenyl-d5)thiazolidin-3-yl)benzamide] | decreased | – |
| 3-((2S,5R)-4-oxo-5-(2-oxo-2-((2-(3,4-dimethoxyphenyl-d6l)ethyl)amino)ethyl)-2-(4-(phenylethynyl)phenyl)thiazolidin-3-yl)benzamide [Compound 7] | decreased | – |
| 3-((2S,5R)-4-oxo-5-(2-oxo-2-((1,1,2,2-d4-2-(3-ethoxy-4-methoxy-d3-phenyl)ethyl)amino)ethyl)-2-(2,3,5,6-d4-4-(phenylethynyl)phenyl)thiazolidin-3-yl)benzamide [Compound 15] | decreased | – |
| [2H]C([2H])(NC(=O)C[C@H]1S[C@@H](c2ccc(C#Cc3ccccc3)cc2)N(c2cccc(C(N)=O)c2)C1=O)C([2H])([2H])c1ccc(OC)c(OC)c1 [Compound 2, 3-((2S,5R)-4-oxo-5-(2-oxo-2-((1,1,2,2-d4-2-(3,4-dimethoxyphenyl)ethyl)amino)ethyl)-2-(4-(phenylethynyl)phenyl)thiazolidin-3-yl)benzamide] | decreased | decreased |
| [2H]c1c([2H])c([2H])c(C#Cc2ccc([C@@H]3S[C@H](CC(=O)NCCc4ccc(O)c(O)c4)C(=O)N3c3cccc(C(N)=O)c3)cc2)c([2H])c1[2H] [Compound 12, 3-((2S,5R)-5-(2-((3,4-dihydroxyphenethyl)amino)-2-oxoethyl)-4-oxo-2-(4-((2,3,4,5,6-phenyl-d5)ethynyl)phenyl)thiazolidin-3-yl)benzamide] | decreased | – |
| [2H]C([2H])(NC(=O)C[C@H]1S[C@@H](c2ccc(C#Cc3ccccc3)cc2)N(c2cccc(C(N)=O)c2)C1=O)C([2H])([2H])c1ccc(O)c(OC)c1 (single isomer, unassigned) [Compound 1] | decreased | decreased |
| [2H]c1c([2H])c([2H])c(C#Cc2ccc([C@@H]3S[C@H](CC(=O)NC([2H])([2H])C([2H])([2H])c4ccc(OC)c(OCC)c4)C(=O)N3c3cccc(C(N)=O)c3)cc2)c([2H])c1[2H] (single isomer, unassigned) [Compound 9] | decreased | – |
